# Record: PubChem BioAssay AID720505 (Drosophila RNAi Screening Center, 2013)
# Test: 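Genes needed for store-operated calcium entry in fly cells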 (primary screen)
# Cells: Drosophila S2R+ cells
# Knock-down reagent: long dsRNA against Drosophila genes
# Treatment: thapsigargin (2 µM) in calcium-free buffer to empty internal stores, then 2 mM calcium added back
# Measured: 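Fluo-4 signal in 384-well plates read on a FLIPR after thapsigargin (2 µM, calcium-free) store depletion and 2 mM calcium add-back; unnormalised mean endpoint per well; screen run twice, selected wells retested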
# Direction: calcium signal and retest calcium signal: higher = more calcium entry after store depletion
# Active means: 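About 1500 genes called as lowering calcium entry, by varying amounts, judged against per-plate control wells with STIM1 as positive and Rho1 as negative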
# Meaning of the calls: active = called as lowering calcium entry; inactive = not called
# The deposit covers about 20,000 reagents; shown is an unselected part of those with a known target gene and a result. In the full data, about 2,100 (10%) got an active call. 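Raw plate signals without normalisation; calls rest on control-based scores that were not deposited; replicate 2 separates called from uncalled poorly.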 Names joined by + are all predicted targets of the reagent. No sequences are given here. Not stated in the record: the amount of reagent, the time to read-out.
Target gene,PubChem SID,"calcium signal, replicate 1","calcium signal, replicate 2","retest calcium signal, replicate 1","retest calcium signal, replicate 2",activity call
CG13947 (GeneID 33250),SID104180157,148,156,,,inactive
CG8584 (GeneID 35856),SID104187009,127,171,,,inactive
CG13036 (retired record) (GeneID 39823),SID104189708,97.7,150,,,inactive
wkd (GeneID 41390),SID104195569,182,113,,,inactive
CG8272 (GeneID 35875),SID104186926,140,135,,,inactive
CG32767 (GeneID 31430),SID104198178,262,99.5,,,inactive
CG5618 (GeneID 40241),SID104191572,90.9,78.3,,,inactive
CG14739 (GeneID 41467),SID104194751,104,96.1,,,inactive
dpr10 (GeneID 39180),SID104189951,109,69.1,,,inactive
dpr10 (GeneID 39180),SID104189952,91.2,67.3,,,inactive
dgt4 (GeneID 31361),SID104198451,131,125,,,inactive
Ho (GeneID 41407),SID104194731,117,124,,,inactive
CR31427 (GeneID 43464),SID104202069,80,101,,,inactive
Lamtor1 (GeneID 40193),SID104189975,126,129,,,inactive
eEF1alpha1 (GeneID 36271),SID104187213,104,228,,,inactive
Art6 (GeneID 41699),SID104196375,108,137,,,inactive
CG13599 (GeneID 42829),SID104194394,146,130,,,inactive
Trmt112 (GeneID 40343),SID104191477,116,116,,,inactive
Parp16 (GeneID 36841),SID104186389,144,116,,,inactive
CG42306 + Gint3,SID104186726,73,105,,,active
CG10702 (GeneID 35181),SID104181889,96.4,123,,,inactive
Tmem43 (GeneID 38881),SID104190756,67.3,50.2,,,active
CG14852 (GeneID 41765),SID104194768,93.1,241,,,inactive
CG31715 (GeneID 318909),SID104201309,105,106,,,inactive
CG15506 (GeneID 43498),SID104194839,195,171,,,inactive
Coq3 (GeneID 35383),SID104182960,102,75.5,,,inactive
cdi (GeneID 42289),SID104196714,111,224,,,inactive

Not a retest: entries from further up.
Target gene,PubChem SID,"calcium signal, replicate 1","calcium signal, replicate 2","retest calcium signal, replicate 1","retest calcium signal, replicate 2",activity call
wkd (GeneID 41390),SID104195569,182,113,,,inactive
CG8272 (GeneID 35875),SID104186926,140,135,,,inactive
CG32767 (GeneID 31430),SID104198178,262,99.5,,,inactive
CG5618 (GeneID 40241),SID104191572,90.9,78.3,,,inactive
CG14739 (GeneID 41467),SID104194751,104,96.1,,,inactive
dpr10 (GeneID 39180),SID104189951,109,69.1,,,inactive
dpr10 (GeneID 39180),SID104189952,91.2,67.3,,,inactive
dgt4 (GeneID 31361),SID104198451,131,125,,,inactive
Ho (GeneID 41407),SID104194731,117,124,,,inactive
CR31427 (GeneID 43464),SID104202069,80,101,,,inactive
Lamtor1 (GeneID 40193),SID104189975,126,129,,,inactive
eEF1alpha1 (GeneID 36271),SID104187213,104,228,,,inactive

The results go on:
Target gene,PubChem SID,"calcium signal, replicate 1","calcium signal, replicate 2","retest calcium signal, replicate 1","retest calcium signal, replicate 2",activity call
CG17404 (GeneID 41482),SID104195026,118,114,103,93.2,inactive
Dtd (GeneID 41371),SID104195154,186,146,,,inactive
aurA (GeneID 41446),SID104196697,150,79.8,,,inactive
betaNACtes6 (GeneID 318107),SID104202282,132,202,,,inactive
Obp50e (GeneID 36600),SID104186226,60.1,141,,,active
dj-1beta (GeneID 43652),SID104194391,161,150,,,inactive
CG14196 (GeneID 32915),SID104199343,140,80.6,,,inactive
Rrp47 (GeneID 32558),SID104199916,110,121,,,inactive
Alp5 (GeneID 42482),SID104194061,156,195,,,inactive
CG11436 (GeneID 31386),SID104197575,127,115,,,inactive
Flo1 (GeneID 36726),SID104187219,91.4,131,,,inactive
ppk29 (GeneID 37844),SID104183997,53.2,127,,,active
Glys (GeneID 41823),SID104195922,97.4,130,,,inactive
CG8490 (GeneID 36338),SID104186986,145,123,,,inactive
GILT2 (GeneID 42788),SID104193988,176,316,,,inactive
Mal-A2 (GeneID 35825),SID104187252,150,114,,,inactive
Eip75B (GeneID 39999),SID104190953,138,117,,,inactive
Eip75B (GeneID 39999),SID104202404,88.5,141,,,inactive
side-VII (GeneID 41184),SID104194370,126,123,,,inactive
CG15919 (GeneID 50216),SID104186386,126,154,,,inactive
CG13197 (GeneID 36253),SID104186114,114,239,,,inactive
ksh (GeneID 50363),SID104199346,163,117,,,inactive
gwl (GeneID 45969),SID104196097,86,152,,,inactive
stops (GeneID 43683),SID104194887,143,143,,,inactive
stops (GeneID 43683),SID104194888,162,171,,,inactive
stops (GeneID 43683),SID104194889,146,143,,,inactive
CG15611 (GeneID 36930),SID104186355,106,120,,,inactive
CG15611 (GeneID 36930),SID104186356,176,195,,,inactive
Mip (GeneID 39933),SID104190431,168,151,,,inactive
RNF220 (GeneID 42690),SID104195444,197,318,,,inactive
dpp (GeneID 33432),SID104179910,75.6,129,,,inactive
dpp (GeneID 33432),SID104179913,96,132,,,inactive
dpp (GeneID 33432),SID104180605,171,169,,,inactive
Dpm1 (GeneID 35240),SID104181810,143,103,,,inactive
CG31510 (GeneID 326146),SID104193974,257,154,,,inactive
aqz (GeneID 41058),SID104196362,126,164,,,inactive
RPA2 (GeneID 35364),SID104182976,81.2,89.2,,,inactive
CG32176 (GeneID 39944),SID104189849,139,162,,,inactive
CG32176 (GeneID 39944),SID104189850,89.1,174,,,inactive
CG33286 (GeneID 2768984),SID104191483,66.7,88,,,active
Rdh1 (GeneID 35708),SID104186604,140,107,,,inactive
asRNA:CR43299 + CG8119,SID104199875,134,174,,,inactive
CG6974 (GeneID 41815),SID104195952,155,156,,,inactive
CG14607 (GeneID 40869),SID104192343,131,135,,,inactive
CG12645 (GeneID 31947),SID104197643,70,100,,,active
RagC-D (GeneID 35793),SID104187031,145,119,,,inactive
CG15784 (GeneID 31461),SID104197882,99.1,73.3,,,inactive
lncRNA:CR33218 (GeneID 12798099),SID104202301,79.6,188,,,inactive
AANATL4 (GeneID 37213),SID104186566,203,116,,,inactive
GIIIspla2 (GeneID 31747),SID104197886,136,82.2,,,inactive
E(spl)mgamma-HLH (GeneID 43151),SID104196491,181,144,,,inactive
dlp (GeneID 39596),SID104190073,104,92.3,,,inactive
dlp (GeneID 39596),SID104190264,79,231,,,inactive
unc-13 (GeneID 43841),SID104197015,114,166,,,inactive
Nepl19 (GeneID 43411),SID104194667,129,182,,,inactive
Ir85a (GeneID 41052),SID104194174,108,160,,,inactive
